Source: US12723059 (dated 2026)

Test: peptide synthesis
Conditions: cyclisation step

Ac-CQWG[Aha]KAS[Aha]FSEC-NH2 showed a cyclisation yield (run 1) of 18% and a cyclisation yield (run 2) of 28%.
